In paper PMC11002876, “KcsA-Kv1.x chimeras with complete ligand-binding sites provide improved predictivity for screening selective Kv1.x blockers” (The Journal of Biological Chemistry, 2024):

Assays:
Assay type in all cases: cell-based
[1] = system: human Kv1.3; assay: Kv1.3 channel blocking, patch-clamp, literature data; settings: rank by literature patch-clamp IC50 (refs 16, 47, 48)
[2] = system: human Kv1.2; assay: Kv1.2 channel blocking, patch-clamp, literature data; settings: rank by literature patch-clamp IC50 (refs 36, 49, 48)
[3] = system: human Kv1.1; assay: Kv1.1 channel blocking, patch-clamp, literature data; settings: rank by literature patch-clamp IC50 (refs 49, 48, 36)

SMILES	Rank, Kv1.x blocking (Kv1.3) [1]	Rank, Kv1.x blocking (Kv1.2) [2]	Rank, Kv1.x blocking (Kv1.1) [3]
CC[C@H](C)[C@H](NC(=O)[C@H](C)NC(=O)[C@H](C)NC(=O)[C@H](C)N)C(=O)N[C@@H](CO)C(=O)N[C@H]1CSSC[C@@H]2NC(=O)[C@H](CCCCN)NC(=O)CNC(=O)[C@H](CC(N)=O)NC(=O)[C@H](CCCCN)NC(=O)[C@@H]3CSSC[C@@H](C(N)=O)NC(=O)[C@H](Cc4ccc(O)cc4)NC(=O)[C@H](Cc4ccc(O)cc4)NC(=O)[C@@H]4CSSC[C@H](NC(=O)[C@H](CCCCN)NC(=O)[C@@H]5CCCN5C(=O)[C@@H]5CCCN5C(=O)[C@H](CSSC[C@H](NC(=O)[C@H](CCCCN)NC(=O)[C@H](CCCNC(=N)N)NC(=O)[C@H](CC(N)=O)NC(=O)[C@H](CCSC)NC2=O)C(=O)N[C@@H](CCCCN)C(=O)N4)NC(=O)[C@H](CCC(=O)O)NC(=O)[C@@H]2CCCN2C(=O)[C@H](CO)NC(=O)CNC(=O)[C@H](C(C)C)NC1=O)C(=O)N[C@@H](CCCNC(=N)N)C(=O)N[C@@H](C)C(=O)N[C@@H](CCC(N)=O)C(=O)NCC(=O)N3 [Vm24, Vm24 toxin]	1	–	–
CC[C@H](C)[C@@H]1NC(=O)[C@@H](NC(=O)[C@H](CO)NC(=O)[C@@H](N)CCCNC(=N)N)CSSC[C@@H](C(=O)O)NC(=O)[C@H]([C@@H](C)O)NC(=O)CNC(=O)[C@@H]2CSSC[C@@H]3NC(=O)[C@H](CCC(N)=O)NC(=O)[C@H](Cc4ccccc4)NC(=O)[C@H](C)NC(=O)[C@H]([C@@H](C)O)NC(=O)[C@H](CSSC[C@H](NC(=O)[C@H](Cc4ccccc4)NC(=O)[C@H](CO)NC(=O)[C@H](CC(C)C)NC(=O)[C@H](CCCNC(=N)N)NC(=O)[C@H](Cc4ccc(O)cc4)NC(=O)[C@H](CCCCN)NC(=O)[C@H](CCSC)NC(=O)[C@H](CO)NC(=O)[C@H](Cc4c[nH]cn4)NC(=O)[C@H](CCCCN)NC3=O)C(=O)N[C@@H](CCCNC(=N)N)C(=O)N[C@@H](CCCCN)C(=O)N[C@@H]([C@@H](C)O)C(=O)N2)NC(=O)[C@H](CCCNC(=N)N)NC(=O)[C@H](CO)NC(=O)[C@H](CCCCN)NC(=O)[C@@H]2CCCN2C(=O)[C@H]([C@@H](C)CC)NC(=O)[C@H]([C@@H](C)O)NC(=O)[C@H](CC(=O)O)NC1=O [ShK, Stichodactyla toxin]	–	2	1
CC[C@H](C)[C@@H]1NC(=O)CNC(=O)[C@H](Cc2ccccc2)NC(=O)[C@H](CCC(N)=O)NC(=O)[C@H](C)NC(=O)[C@H](CCCCN)NC(=O)[C@@H]2CSSC[C@@H](C(=O)N[C@@H](Cc3ccc(O)cc3)C(=O)N3CCC[C@H]3C(=O)N[C@@H](Cc3c[nH]cn3)C(=O)O)NC(=O)[C@H](CCCCN)NC(=O)[C@@H]3CSSC[C@H](NC(=O)[C@H](CCC(N)=O)NC(=O)[C@H](CCCCN)NC(=O)[C@@H]4CCCN4C(=O)[C@H](CO)NC(=O)[C@H]([C@@H](C)O)NC(=O)[C@@H](NC(=O)[C@H](CCCCN)NC(=O)[C@@H](NC(=O)[C@H](CC(=O)O)NC(=O)[C@@H](NC(=O)[C@@H](NC(=O)[C@@H](N)[C@@H](C)O)C(C)C)[C@@H](C)CC)C(C)C)CSSC[C@H](NC(=O)[C@H](CCCCN)NC(=O)[C@H](C)NC(=O)CNC(=O)[C@H](C)NC(=O)[C@H](CCCNC(=N)N)NC1=O)C(=O)N[C@@H](CCSC)C(=O)N[C@@H](CC(N)=O)C(=O)NCC(=O)N[C@@H](CCCCN)C(=O)N3)C(=O)N[C@@H](CC(C)C)C(=O)N1CCC[C@H]1C(=O)N1CCC[C@H]1C(=O)N2 [HgTx1, Hongotoxin-1] (HELM PEPTIDE1{T.V.I.D.V.K.C.T.S.P.K.Q.C.L.P.P.C.K.A.Q.F.G.I.R.A.G.A.K.C.M.N.G.K.C.K.C.Y.P.H}$PEPTIDE1,PEPTIDE1,7:R3-29:R3|PEPTIDE1,PEPTIDE1,13:R3-34:R3|PEPTIDE1,PEPTIDE1,17:R3-36:R3$$$V2.0; N-terminus and C-terminus assumed)	2	–	–
CC[C@H](C)[C@H](NC(=O)[C@H](CCC(=O)O)NC(=O)[C@@H](NC(=O)CN)C(C)C)C(=O)N[C@@H](CC(N)=O)C(=O)N[C@H](C(=O)N[C@@H](CCCCN)C(=O)N[C@H]1CSSC[C@@H]2NC(=O)[C@H](CCCCN)NC(=O)CNC(=O)[C@H](Cc3ccccc3)NC(=O)[C@H](CCCNC(=N)N)NC(=O)[C@H](CCSC)NC(=O)CNC(=O)[C@H](C)NC(=O)[C@H](CC(=O)O)NC(=O)[C@H](CCCCN)NC(=O)[C@@H]3CSSC[C@@H](C(=O)N[C@H](C(=O)N4CCC[C@H]4C(=O)N[C@@H](CCCCN)C(=O)O)[C@@H](C)O)NC(=O)[C@H](Cc4c[nH]cn4)NC(=O)[C@H](CSSC[C@H](NC(=O)[C@H](CCC(N)=O)NC(=O)[C@@H]4CCCN4C(=O)[C@H](CO)NC(=O)CNC(=O)[C@H](CO)NC1=O)C(=O)N[C@@H](CC(C)C)C(=O)N[C@@H](CCCCN)C(=O)N1CCC[C@H]1C(=O)N3)NC(=O)[C@H](CCCCN)NC(=O)[C@H](CCCNC(=N)N)NC(=O)[C@H](CC(N)=O)NC(=O)[C@H](CCSC)NC2=O)C(C)C [KTX1, Kaliotoxin-1]	3	3	2
CC[C@H](C)[C@@H]1NC(=O)[C@@H]2CSSC[C@H](NC(=O)[C@H](CO)NC(=O)[C@@H](N)C(C)C)C(=O)N[C@@H]([C@@H](C)O)C(=O)NCC(=O)N[C@@H](CO)C(=O)N[C@@H](CCCCN)C(=O)N[C@@H](CC(=O)O)C(=O)N[C@@H](CSSC[C@@H](C(=O)N[C@@H](CCCCN)C(=O)N[C@H]3CSSC[C@@H](C(N)=O)NC(=O)CNC(=O)[C@H](Cc4ccc(O)cc4)NC3=O)NC(=O)[C@H](CO)NC(=O)[C@H](CCCCN)NC(=O)[C@H](CC(N)=O)NC1=O)C(=O)N[C@@H](Cc1ccc(O)cc1)C(=O)N[C@@H](C)C(=O)N1CCC[C@H]1C(=O)N[C@H]1CSSC[C@H](NC(=O)CNC(=O)[C@H]([C@@H](C)O)NC(=O)[C@H](CCC(N)=O)NC(=O)[C@H](CCCCN)NC(=O)[C@H](CCCNC(=N)N)NC1=O)C(=O)N1CCC[C@H]1C(=O)N[C@@H](CC(N)=O)C(=O)N[C@@H](C)C(=O)N[C@@H](CCCCN)C(=O)N2 [MTX, Maurotoxin] (HELM PEPTIDE1{V.S.C.T.G.S.K.D.C.Y.A.P.C.R.K.Q.T.G.C.P.N.A.K.C.I.N.K.S.C.K.C.Y.G.C.[am]}$PEPTIDE1,PEPTIDE1,3:R3-24:R3|PEPTIDE1,PEPTIDE1,9:R3-29:R3|PEPTIDE1,PEPTIDE1,13:R3-19:R3|PEPTIDE1,PEPTIDE1,31:R3-34:R3$$$V2.0; N-terminus and C-terminus assumed)	–	1	3

No dose or concentration is given here for some results. Where a SMILES comes first, the peptide text is derived from it.
